Values of other authors as cited in patent publication US20260224761A1, “DUAL LABELLED COMPOUNDS TARGETING THE PROSTATE SPECIFIC MEMBRANE ANTIGEN” (priority 2023, published 2026).

Amino acid sequences for entries named in this document (tags omitted).
UniProt Q04609, whole entry: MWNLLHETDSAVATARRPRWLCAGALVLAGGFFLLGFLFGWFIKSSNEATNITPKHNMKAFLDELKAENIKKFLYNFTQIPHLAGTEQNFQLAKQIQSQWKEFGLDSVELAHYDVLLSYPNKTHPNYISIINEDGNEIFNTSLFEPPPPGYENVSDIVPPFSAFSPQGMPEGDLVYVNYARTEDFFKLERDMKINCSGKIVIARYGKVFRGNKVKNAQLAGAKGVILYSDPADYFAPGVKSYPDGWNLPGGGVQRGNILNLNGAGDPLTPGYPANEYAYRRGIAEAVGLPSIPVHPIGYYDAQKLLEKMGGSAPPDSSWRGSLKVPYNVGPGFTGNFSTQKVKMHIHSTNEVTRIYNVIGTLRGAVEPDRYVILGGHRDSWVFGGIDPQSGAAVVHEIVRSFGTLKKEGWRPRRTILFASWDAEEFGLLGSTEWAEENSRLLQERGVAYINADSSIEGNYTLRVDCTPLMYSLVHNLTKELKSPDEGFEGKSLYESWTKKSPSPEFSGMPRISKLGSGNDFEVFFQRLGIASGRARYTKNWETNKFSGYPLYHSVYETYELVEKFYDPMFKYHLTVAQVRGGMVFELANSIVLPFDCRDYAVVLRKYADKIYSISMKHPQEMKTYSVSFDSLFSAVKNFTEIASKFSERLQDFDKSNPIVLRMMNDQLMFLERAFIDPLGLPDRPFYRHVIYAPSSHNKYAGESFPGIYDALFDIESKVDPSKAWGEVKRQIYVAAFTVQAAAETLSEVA

Target: PSMA (Homo sapiens, UniProt Q04609)
Settings: LNCaP cells; reference compounds, assayed under identical conditions (literature cited in table title); # = free mas3-chelator; cited from earlier work

Structure (SMILES): C[N+]1=C(/C=C/C=C/C=C2/N(CCCCCC(=O)NCCCC[C@@H](NC(=O)CCC(C(=O)O)N3CCN(CC(=O)O)CCN(CC(=O)O)CCN(CC(=O)O)CC3)C(=O)N[C@H](Cc3ccc(O)c(I)c3)C(=O)N[C@H](Cc3ccc(O)c(I)c3)C(=O)N[C@H](CCCCNC(=O)CCCCCCC(=O)NCCCC[C@H](NC(=O)N[C@@H](CCC(=O)O)C(=O)O)C(=O)O)C(=O)O)c3ccc(S(=O)(=O)[O-])cc3C2(C)C)C(C)(C)c2cc(S(=O)(=O)O)ccc21 (single isomer, unassigned)
- IC50: 10.5 nM

Structures were worked out from names or drawings and are uncertain.
